{"source": "patent US7629375B2", "about": "“Cytoprotective compounds, pharmaceutical and cosmetic formulations, and methods” (Johnson & Johnson Consumer Companies, Inc., priority 2001, dated 2009)", "test_system": "Male Wistar rats", "test": "Rat middle cerebral artery occlusion (MCAO) model of cerebral ischemia", "type": "in vivo", "settings": "two hours MCAO; doses in the range of less than about 1 μg/kg to about 10 mg/kg", "note": "Some entries share one result that the patent states for a list of compounds.", "data": [{"smiles": "COc1cc(C=Cc2ccc([N+](=O)[O-])cc2)cc(CC=C(C)C)c1O", "note": "[2-methoxy-6-(3-methyl-but-2-enyl)-4-[2-(4-nitro-phenyl)-vinyl]-phenol]", "values": [{"measurement": "reduction in total infarct volume", "result": "at least 20%"}]}, {"smiles": "CCCCCCCCCCCCCCOC(=O)c1ccc(C=Cc2ccc(OCOC)c(OCOC)c2)cc1", "note": "[4-[2-(3,4-bis-methoxymethoxy-phenyl)-vinyl]-benzoic acid tetradecyl ester]", "values": [{"measurement": "reduction in total infarct volume", "result": "at least 20%"}]}]}
